This passage reports binding results from patent US20110183861A1 (ABLYNN N V, published 2011).

Sequences of proteins named here, by UniProt entry; tags and fusion partners are left off. Residues count along the entry.
UniProt P08887, residues 20-358: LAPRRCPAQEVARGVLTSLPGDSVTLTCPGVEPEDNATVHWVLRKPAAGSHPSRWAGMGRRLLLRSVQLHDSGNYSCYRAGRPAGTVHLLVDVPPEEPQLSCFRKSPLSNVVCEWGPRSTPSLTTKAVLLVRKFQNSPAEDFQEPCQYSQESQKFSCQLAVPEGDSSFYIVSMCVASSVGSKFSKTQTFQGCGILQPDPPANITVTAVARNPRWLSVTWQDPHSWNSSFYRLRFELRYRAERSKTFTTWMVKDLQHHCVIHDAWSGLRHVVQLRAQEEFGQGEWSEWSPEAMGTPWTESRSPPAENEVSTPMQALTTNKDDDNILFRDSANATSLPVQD
UniProt P04275, residues 1261-1468: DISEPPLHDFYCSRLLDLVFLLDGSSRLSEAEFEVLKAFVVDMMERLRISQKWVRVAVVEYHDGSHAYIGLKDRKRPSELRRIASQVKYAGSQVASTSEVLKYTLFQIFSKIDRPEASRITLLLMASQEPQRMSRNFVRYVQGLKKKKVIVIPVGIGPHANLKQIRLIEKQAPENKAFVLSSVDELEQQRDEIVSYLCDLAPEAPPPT

Results are given in words; binding and its absence hold for the method and conditions named. Some binding calls cover weakened binding; strength is not graded here.

Test [1] addresses hIL-6R (human) (UniProt P08887). Description: Biacore3000, initial binding rate on high density hIL-6R chip.
For test [2], the target named is A1 domain of vWF (UniProt P04275). Description: Biacore potency assay, parallel line method.
Test [3] has the same target. Nature of the test: Biacore, sensor chip coated with 3500RU vWF A1 domain, samples stored at 37° C. against reference. On the technique in general: SPR reads the build-up and loss of mass on a sensor chip optically.

B1: IL6R201 (VHH)
VHH: EVQLVESGGGLVQPGGSLRLSCAASGFTFSDYDIGWFRQAPGKGREGVSGISSSDGNTYYADSVKGRFTISRDNAKNTLYLQMNSLRPEDTAVYYCAAEPPDSSWYLDGSPEFFKYWGQGTLVTVSS
As to B1, the binding result in test [1] is reported as “binds”.

B2: IL6R201_D102Q (VHH)
VHH: EVQLVESGGGLVQPGGSLRLSCAASGFTFSDYDIGWFRQAPGKGREGVSGISSSDGNTYYADSVKGRFTISRDNAKNTLYLQMNSLRPEDTAVYYCAAEPPQSSWYLDGSPEFFKYWGQGTLVTVSS
For the molecule B2, the binding result in test [1] was “binds”.

B3: IL6R201_D55E (VHH)
VHH: EVQLVESGGGLVQPGGSLRLSCAASGFTFSDYDIGWFRQAPGKGREGVSGISSSEGNTYYADSVKGRFTISRDNAKNTLYLQMNSLRPEDTAVYYCAAEPPDSSWYLDGSPEFFKYWGQGTLVTVSS
Take B3: the binding result in test [1] is “binds”.

B4: IL6R201_D108Q (VHH)
VHH: EVQLVESGGGLVQPGGSLRLSCAASGFTFSDYDIGWFRQAPGKGREGVSGISSSDGNTYYADSVKGRFTISRDNAKNTLYLQMNSLRPEDTAVYYCAAEPPDSSWYLQGSPEFFKYWGQGTLVTVSS
For B4, in test [1], the binding entry is reported as “binds”.

B5: IL6R201_D102E (VHH)
VHH: EVQLVESGGGLVQPGGSLRLSCAASGFTFSDYDIGWFRQAPGKGREGVSGISSSDGNTYYADSVKGRFTISRDNAKNTLYLQMNSLRPEDTAVYYCAAEPPESSWYLDGSPEFFKYWGQGTLVTVSS
As to B5, the binding result in test [1] was “binds”.

B6: IL6R201_D108E (VHH)
VHH: EVQLVESGGGLVQPGGSLRLSCAASGFTFSDYDIGWFRQAPGKGREGVSGISSSDGNTYYADSVKGRFTISRDNAKNTLYLQMNSLRPEDTAVYYCAAEPPDSSWYLEGSPEFFKYWGQGTLVTVSS
Turning to B6, in test [1], the binding entry is on record as “binds”.

B7: IL6R201_D55Q (VHH)
VHH: EVQLVESGGGLVQPGGSLRLSCAASGFTFSDYDIGWFRQAPGKGREGVSGISSSQGNTYYADSVKGRFTISRDNAKNTLYLQMNSLRPEDTAVYYCAAEPPDSSWYLDGSPEFFKYWGQGTLVTVSS
Consider B7, for which the binding result in test [1] is given as “binds”.

B8: VWF0001; SEQ ID NO: 1 with E1D, D62E, M78T, D105Q, D193E, M209T, D236Q (VHH)
chain: DVQLVESGGGLVQPGGSLRLSCAASGRTFSYNPMGWFRQAPGKGRELVAAISRTGGSTYYPESVEGRFTISRDNAKRTVYLQMNSLRAEDTAVYYCAAAGVRAEQGRVRTLPSEYTFWGQGTQVTVSSAAAEVQLVESGGGLVQPGGSLRLSCAASGRTFSYNPMGWFRQAPGKGRELVAAISRTGGSTYYPESVEGRFTISRDNAKRTVYLQMNSLRAEDTAVYYCAAAGVRAEQGRVRTLPSEYTFWGQGTQVTVSS
Take B8: the binding result in test [2] and in test [3] was “binds” each time.

B9: Stab. 12A2H1; SEQ ID NO: 2 with E1D, D62E, M78T, D105Q (VHH)
VHH: DVQLVESGGGLVQPGGSLRLSCAASGRTFSYNPMGWFRQAPGKGRELVAAISRTGGSTYYPESVEGRFTISRDNAKRTVYLQMNSLRAEDTAVYYCAAAGVRAEQGRVRTLPSEYTFWGQGTQVTVSS
notes: also called 12A2H1 SV1; 12A2h1SV1
Turning to B9, the binding result in test [3] is reported as “binds”.
